Three molecules from paper PMC3029388 can be followed below.

The target of test [1] is T1, Mod(mdg4)2.2 (Drosophila) (UniProt Q86B87).
T1 sequence: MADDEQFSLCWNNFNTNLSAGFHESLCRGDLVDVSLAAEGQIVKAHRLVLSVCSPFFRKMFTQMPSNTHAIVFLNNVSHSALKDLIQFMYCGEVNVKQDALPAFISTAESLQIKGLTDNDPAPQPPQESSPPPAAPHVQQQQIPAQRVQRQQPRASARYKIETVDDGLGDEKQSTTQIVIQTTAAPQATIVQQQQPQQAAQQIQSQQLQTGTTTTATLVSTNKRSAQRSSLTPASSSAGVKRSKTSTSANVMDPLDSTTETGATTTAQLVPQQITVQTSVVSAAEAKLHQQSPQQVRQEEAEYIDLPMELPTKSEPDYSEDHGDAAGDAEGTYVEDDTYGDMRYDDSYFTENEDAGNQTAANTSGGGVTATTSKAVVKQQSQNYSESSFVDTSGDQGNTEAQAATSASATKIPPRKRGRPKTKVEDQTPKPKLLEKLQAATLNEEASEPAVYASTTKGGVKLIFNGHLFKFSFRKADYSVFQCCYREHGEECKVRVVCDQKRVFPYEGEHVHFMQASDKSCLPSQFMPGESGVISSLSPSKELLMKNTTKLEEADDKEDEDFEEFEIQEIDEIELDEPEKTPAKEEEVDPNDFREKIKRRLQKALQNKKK
As to the kind of experiment: co-IP; extracts treated with antibodies to Mod(mdg4)2.2 and blotted with anti-Topo II, and extracts treated with antibodies to Topo II and blotted with anti-Mod(mdg4)2.2; conducted as described in ref. 15.

The target of test [2] is Topo II fused to the GAL4 activation domain or DNA binding domain (Drosophila) (UniProt P15348). Briefly: two-hybrid; Invitrogen ProQuest Two-Hybrid System; GAL4 activation domain (pDEST22) and DNA binding domain (pDEST32) fusions; growth on -URA and lack of growth on 5FOA plates indicates interaction.
Test [3] addresses T2, Mod(mdg4)2.2 fused to the GAL4 activation domain or DNA binding domain (Drosophila) (UniProt Q86B87).
T2 sequence: T1 sequence
The description is as above.

Test [4] has as its target T3, Mod(mdg4)2.2 fused to the GAL4 activation domain or DNA binding domain (Drosophila), Q86B87.
T3 chain: T1 sequence
The test is described as above. The following applies: remark: other sources report otherwise.

Results are given in words; binding and its absence hold for the method and conditions named. For some of these results: Binding seen in cells or lysates may run through a third protein. Some results given as binding are weak or reduced against the parent protein; the word gives no strength. For some of these results: Sequences can lack the tags named with a protein.

B1: DNA Topoisomerase II (protein, UniProt P15348 1-1447)
chain: MENGNKALSIEQMYQKKSQLEHILLRPDSYIGSVEFTKELMWVYDNSQNRMVQKEISFVPGLYKIFDEILVNAADNKQRDKSMNTIKIDIDPERNMVSVWNNGQGIPVTMHKEQKMYVPTMIFGHLLTSSNYNDDEKKVTGGRNGYGAKLCNIFSTSFTVETATREYKKSFKQTWGNNMGKASDVQIKDFNGTDYTRITFSPDLAKFKMDRLDEDIVALMSRRAYDVAASSKGVSVFLNGNKLGVRNFKDYIDLHIKNTDDDSGPPIKIVHEVANERWEVACCPSDRGFQQVSFVNSIATYKGGRHVDHVVDNLIKQLLEVLKKKNKGGINIKPFQVRNHLWVFVNCLIENPTFDSQTKENMTLQQKGFGSKCTLSEKFINNMSKSGIVESVLAWAKFKAQNDIAKTGGRKSSKIKGIPKLEDANEAGGKNSIKCTLILTEGDSAKSLAVSGLGVIGRDLYGVFPLRGKLLNVREANFKQLSENAEINNLCKIIGLQYKKKYLTEDDLKTLRYGKVMIMTDQDQDGSHIKGLLINFIHTNWPELLRLPFLEEFITPIVKATKKNEELSFYSLPEFEEWKNDTANHHTYNIKYYKGLGTSTSKEAKEYFQDMDRHRILFKYDGSVDDESIVMAFSKKHIESRKVWLTNHMDEVKRRKELGLPERYLYTKGTKSITYADFINLELVLFSNADNERSIPSLVDGLKPGQRKVMFTCFKRNDKREVKVAQLSGSVAEMSAYHHGEVSLQMTIVNLAQNFVGANNINLLEPRGQFGTRLSGGKDCASARYIFTIMSPLTRLIYHPLDDPLLDYQVDDGQKIEPLWYLPIIPMVLVNGAEGIGTGWSTKISNYNPREIMKNLRKMINGQEPSVMHPWYKNFLGRMEYVSDGRYIQTGNIQILSGNRLEISELPVGVWTQNYKENVLEPLSNGTEKVKGIISEYREYHTDTTVRFVISFAPGEFERIHAEEGGFYRVFKLTTTLSTNQMHAFDQNNCLRRFPTAIDILKEYYKLRREYYARRRDFLVGQLTAQADRLSDQARFILEKCEKKLVVENKQRKAMCDELLKRGYRPDPVKEWQRRIKMEDAEQADEEDEEEEEAAPSVSSKAKKEKEVDPEKAFKKLTDVKKFDYLLGMSMWMLTEEKKNELLKQRDTKLSELESLRKKTPEMLWLDDLDALESKLNEVEEKERAEEQGINLKTAKALKGQKSASAKGRKVKSMGGGAGAGDVFPDPDGEPVEFKITEEIIKKMAAAAKVAQAAKEPKKPKEPKEPKVKKEPKGKQIKAEPDASGDEVDEFDAMVEGGSKTSPKAKKAVVKKEPGEKKPRQKKENGGGLKQSKIDFSKAKAKKSDDDVEEVTPRAERPGRRQASKKIDYSSLFSDEEEDGGNVGSDDDGNASDDDSPKRPAKRGREDESSGGAKKKAPPKKRRAVIESDDDDIEIDEDDDDDSDFNC
As for B1, in test [1], the binding result is recorded as “binds”.

B2: Topo II fused to the GAL4 activation domain or DNA binding domain (protein, UniProt P15348 1-1447)
chain: B1 chain
B2: the binding result in test [2] and in test [3] was “binds” each time.

B3: Mod(mdg4)2.2 fused to the GAL4 activation domain or DNA binding domain, Q86B87 1-610 (protein)
chain: T1 sequence
Consider B3, for which, in test [4], the binding entry is on record as “binds”.
